This is an account of results in PMC7819943, “Rice protein-binding microarrays: a tool to detect cis-acting elements near promoter regions in rice”.

Sequences of proteins named here, by UniProt entry; tags and fusion partners are left off.
UniProt Q0JBA9, entry or part of it: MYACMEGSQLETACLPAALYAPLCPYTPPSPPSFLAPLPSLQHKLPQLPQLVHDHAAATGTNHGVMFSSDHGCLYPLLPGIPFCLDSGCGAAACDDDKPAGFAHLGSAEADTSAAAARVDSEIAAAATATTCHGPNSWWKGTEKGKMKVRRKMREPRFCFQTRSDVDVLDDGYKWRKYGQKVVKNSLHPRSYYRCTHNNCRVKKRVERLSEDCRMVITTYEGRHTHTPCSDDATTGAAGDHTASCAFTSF

The list shows a part of the results.

For this test, the target named is OsWRKY34 (Oryza sativa, UniProt Q0JBA9 1-250). The test can be described thus: protein-binding microarray (RPBM); PBS, 2% BSA, 51.3 ng/ul salmon testes DNA, 50 uM zinc acetate, 200 nM TF, 25 C, 1 h; high values mean tight binding. The note with it: protein: recombinant; tags: N-terminal polyhistidine and DsRed monomer fusion (pET32a); label: CyDye5-dUTP incorporated in the synthesized complementary strand; 3' TTTTT single-stranded linker to array surface; dsDNA, one strand shown. In short, it runs like this: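 Ni–NTA purification followed expression in E. coli BL21-CodonPlus of transcription factors fused N-terminally to a polyhistidine tag and DsRed. At 200 nM in PBS with 2% BSA, salmon testes DNA and 50 µM zinc acetate, the protein was incubated for 1 h at 25 °C with a custom Agilent array that had been primer-extended with Cy5-dUTP and blocked with 2% BSA. After washing, the array was read on an Axon 4000B scanner. The binding signal is per-feature fluorescence intensity in arbitrary units.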
Consider “TACATATAAAACGCTCGCCGCCGTTCGCCATTCGTTTCCACGGAGTCACCTAGTGCAG”, for which the binding signal is 9080 fluorescence intensity (a.u.).
To “ACCTGTCAGTGGGCCCCACCCCGCACTGGACCCACCTATCCGGAGTCACCTAGTGCAG” belongs 9250 fluorescence intensity (a.u.); to “CCGCCGTTGACGAACTTGGTGAGCGTCTTCTTGCCCTTGGCGGAGTCACCTAGTGCAG”, 9030 fluorescence intensity (a.u.).
To “TAAGTCTATTTTTGGTCCCTCAACTCTGTGGGTTGTGTTTCGGAGTCACCTAGTGCAG” belongs 9660 fluorescence intensity (a.u.).
“TATTCCCTCACACTATTTATTGTATGCTTCACCACTTTACCGGAGTCACCTAGTGCAG”: the binding signal is 8220 fluorescence intensity (a.u.).
Turning to “CCATCTATCATCCGCATCTCAGCTCGTTGCCCAGCATCTTCGGAGTCACCTAGTGCAG”, the binding signal is 10100 fluorescence intensity (a.u.).
To “CCCTTCTTTTCCGTTGCCCTATCACTAGATCTGGTCACTACGGAGTCACCTAGTGCAG” belongs 9520 fluorescence intensity (a.u.).
The figure for “TCTCCTGTCGTTGCCACACCGTCTTCTCTCTTCTCCTCCGCGGAGTCACCTAGTGCAG” is 9320 fluorescence intensity (a.u.).
In the case of “ATGTGCTGTAAATTAAATCATGGTGTTCATATTTTGGCCCCGGAGTCACCTAGTGCAG”, the binding signal was 8060 fluorescence intensity (a.u.).
The figure for “TCCCAACCACACCCACCCACCCGCCCAATCCATCCACCAACGGAGTCACCTAGTGCAG” is 8860 fluorescence intensity (a.u.); for “ACTGCTTATTTTTTTCGTCTCCTCCATGCTCCTGCTAGTTCGGAGTCACCTAGTGCAG” it is 10300 fluorescence intensity (a.u.); for “GGTATGACATATCTAGTTTTACGGTTGGGGATGTCTATGTCGGAGTCACCTAGTGCAG” it is 9240 fluorescence intensity (a.u.).
To “CAAGTTGCATTGTTCCTGTGGTGTTTTACTAACTTATTATCGGAGTCACCTAGTGCAG” belongs 14700 fluorescence intensity (a.u.); to “TGTTTTTCCATTTCTCGTTACTTGGTTGTTTAATTTGTTTCGGAGTCACCTAGTGCAG”, 15900 fluorescence intensity (a.u.); to “ACCCTATTCCCATGGTCTCTCTCTCCATCATCTAAAGGTTCGGAGTCACCTAGTGCAG”, 10500 fluorescence intensity (a.u.).
The figure for “TTTTGTAACACGCTTTGTAGGCCTTCGCTAATCCTCATGTCGGAGTCACCTAGTGCAG” is 8570 fluorescence intensity (a.u.); for “CCGGACCACGCCCACCACCCAAAACCCTCCGGCTCATTCTCGGAGTCACCTAGTGCAG” it is 12300 fluorescence intensity (a.u.).
Consider “CGCTCGCGTCGCGCCCATCTCCACCAATCCACCACCGCCACGGAGTCACCTAGTGCAG”, for which the binding signal is 11100 fluorescence intensity (a.u.).
To “TCCCCACTCGGCAGCTCGCCATTCCACCACCACCGCGCCGCGGAGTCACCTAGTGCAG” belongs 8090 fluorescence intensity (a.u.); to “CATCAAAAATTTTATACACACATAAACTTTCAACTTTTCCCGGAGTCACCTAGTGCAG”, 9960 fluorescence intensity (a.u.).
With “GAGTTCTGTTATTCCCTTTGTAATCTGTTGTTTCTATCATCGGAGTCACCTAGTGCAG”, the binding signal was 8540 fluorescence intensity (a.u.).
The figure for “CAGGTGGTATTTGTATGGTGATTAATTTACTACTTGTGTACGGAGTCACCTAGTGCAG” is 9200 fluorescence intensity (a.u.).
Consider “GGCGTGGGGTGGTTGATCTCCTCCTCCTCCTCTTCGTCGGCGGAGTCACCTAGTGCAG”, for which the binding signal is 8740 fluorescence intensity (a.u.).
As to “GGAGATCATCCTCGCCCCGCCGCCGCCGCCGCCGCCGCCGCGGAGTCACCTAGTGCAG”, the binding signal was 8350 fluorescence intensity (a.u.).
The figure for “GTCTCTATTTTTATGTGCACTTGTTGGATGGAGCGGTCAACGGAGTCACCTAGTGCAG” is 8430 fluorescence intensity (a.u.); for “AGCTGCTAATTACTGTACACCTGTCACCTCTGGCAGCAGACGGAGTCACCTAGTGCAG” it is 8760 fluorescence intensity (a.u.); for “TTTATGGTTGCCACTTTTCTTGTTTTAATATGTTATTTCTCGGAGTCACCTAGTGCAG” it is 8860 fluorescence intensity (a.u.).
On to “CTGGAATGAGTGGTGGTTGATTGTTTAGTGTTTACTGTTCCGGAGTCACCTAGTGCAG”, for which the binding signal is 8470 fluorescence intensity (a.u.).
The figure for “TTGCTGCCCATTTCTATTCCACACTTGCATGCAACTCAATCGGAGTCACCTAGTGCAG” is 14700 fluorescence intensity (a.u.); for “CCTCTAAAGCTGTACTCTGCAAAACATGCATCTACTCATTCGGAGTCACCTAGTGCAG” it is 8720 fluorescence intensity (a.u.).
The figure for “CAGCCCACAACCACATCGACCCTATATAAACCGACGAGGACGGAGTCACCTAGTGCAG” is 8560 fluorescence intensity (a.u.).
The figure for “ACATCACCACCCACCTCACCCTGCCGCTCCCGAGCGCGATCGGAGTCACCTAGTGCAG” is 9140 fluorescence intensity (a.u.); for “TAACTATCCTCTATTTCTTTATTTGACCTATAGTGTAGATCGGAGTCACCTAGTGCAG” it is 8510 fluorescence intensity (a.u.).
On to “TATTTTCTTCCTCTATTTTATTTCTTCAGTACCTTCTAAGCGGAGTCACCTAGTGCAG”, for which the binding signal was 8660 fluorescence intensity (a.u.).
To “GTCCATCACCGAACGAACAGCCCACAGAAACCCCAAAAACCGGAGTCACCTAGTGCAG” belongs 8220 fluorescence intensity (a.u.).
Consider “ATCTTACGGTATCCATTATCTATTTACGTACATTTTCTTTCGGAGTCACCTAGTGCAG”, for which the binding signal was 8180 fluorescence intensity (a.u.).
Take “CGAAAATGGTTTGCTTCGTAGGATCGTTATTTTGCTTGTTCGGAGTCACCTAGTGCAG”: the binding signal was 10800 fluorescence intensity (a.u.).
To “CTATTTGCAACCAAATTTGTCATGTTCTTTTTTTTTACATCGGAGTCACCTAGTGCAG” belongs 11400 fluorescence intensity (a.u.); to “TGTGGTGCGTCTCCTCGTGCAGTTTTTGCCCTTGATTTGACGGAGTCACCTAGTGCAG”, 11800 fluorescence intensity (a.u.).
The figure for “GATTTGGTGGGTTATAATTTTATAGTAAGAGGGGATTTTACGGAGTCACCTAGTGCAG” is 16100 fluorescence intensity (a.u.); for “TATAAATACGTGATGTTTAATCTTCCATTTTCAATCCAATCGGAGTCACCTAGTGCAG” it is 8030 fluorescence intensity (a.u.); for “TCCACTAAACTGGTCCGTCACCCTCGCTGCCCGCTCTGAGCGGAGTCACCTAGTGCAG” it is 9330 fluorescence intensity (a.u.).
